From patent US20250026849A1 (ARCELLX, published 2025)
No constants are given. Whether binding was seen depends on the method and setting. Binding can be weak; no strength is given.

By UniProt entry, the sequences of proteins in these tests, tags left out. Where a name states a change or a piece, a line headed by the entry shows the natural chain unless it says otherwise.
UniProt P55899: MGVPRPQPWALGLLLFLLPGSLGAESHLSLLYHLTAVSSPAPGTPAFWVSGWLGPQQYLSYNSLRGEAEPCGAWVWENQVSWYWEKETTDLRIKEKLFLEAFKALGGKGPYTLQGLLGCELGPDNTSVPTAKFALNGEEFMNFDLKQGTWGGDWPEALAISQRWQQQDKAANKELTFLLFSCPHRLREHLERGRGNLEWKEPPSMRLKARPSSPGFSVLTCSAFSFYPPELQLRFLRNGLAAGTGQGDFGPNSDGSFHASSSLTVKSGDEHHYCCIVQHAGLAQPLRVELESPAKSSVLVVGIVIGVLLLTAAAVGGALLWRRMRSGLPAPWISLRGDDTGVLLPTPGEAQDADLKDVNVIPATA

Columns and labels:
[1] = target: Biotinylated human FcRn (human) (UniProt P55899); assay: ELISA at pH 6.0 and pH 7.4
[2] = target: Biotinylated human FcRn (human) (UniProt P55899); assay: ELISA at pH 6.0 and pH 7.4 (FIG. 10)
[3] = target: Biotinylated human FcRn (human) (UniProt P55899); assay: ELISA: adapter coated on the plate, serially diluted biotinylated human FcRn at pH 6.0 or 7.4, streptavidin-HRP, A450

Row | binding [1] | binding [2] | binding [3] | Binder
1 | binds | binds | binds | bc40-p26 Adapter (SEQ ID NO: 1085) (designed binder) DEHHHHHHHHHHKLENLYFQGGGGGSMGSWSEFWVRLGAIRERLDALGGSEAELAAFEKEIAAFESELQAYKGKGNPEVEKLRYTAATIRRFLQAYRHNGGGGSGGGGSGGGGSLEKCFQTENPLECQDKGEEELQKYIQESQALAKRSCGLFQKLGEYYLQNAFLVAYTKKAPQLTSSELMAITRKMAATAATCCQLSEDKLLACGEGAADIIIGHLCIRHEMTPVNPGVGQCCTSSYANRRPCFSSLVVDETYVPPAFSDDKFIFHKDLCQAQGVALQTMKQEFLINLVKQKPQITEEQLEAVIADFSGLLEKCCQGQEQEVCFAEEGQKLISKTRAALGV
2 | binds | binds | binds | bc98-p26(Q26-V229)-bc98 (SEQ ID NO: 1132) (designed binder) DEMGSWSEFWARLGAIRERLDALGGSEAELAAFEKEIAAFESELQAYKGKGNPEVEKLRYTAGTIKRFLQAYRHNGGGGDGGGGSGGGGSGQESQALAKRSCGLFQKLGEYYLQNAFLVAYTKKAPQLTSSELMAITRKMAATAATCCQLSEDKLLACGEGAADIIIGHLCIRHEMTPVNPGVGQCCTSSYANRRPCFSSLVVDETYVPPAFSDDKFIFHKDLCQAQGVALQTMKQEFLINLVKQKPQITEEQLEAVIADFSGLLEKCCQGQEQEVCFAEEGQKLISKTRAALGVGGGGSGGGGSGGGGSMGSWSEFWARLGAIRERLDALGGSEAELAAFEKEIAAFESELQAYKGKGNPEVEKLRYTAGTIKRFLQAYRHNGGGGSGGGGSGGGGSHHHHHHHHHH
